The text below walks through data of patent US20210106679A1 (UNIVERSITÄT WIEN, priority 2017, published 2021).

For some of these results: Plain letter strings leave the end groups untold. *1 amine or outer side, *2 acyl side, *3 side chain or, on linkers, in order; H or OH if unused. Where no end group is shown, it is not given here. [ ]: non-standard residue; d: D form. εLys = N[C@@H](CCCCN[*:1])C(=O)[*:2]

Data set [1] is described as follows: TEM imaging of peptides and peptide-silica mixtures. Conditions: absence of silicic acid. The data set is classed as physicochemical. Here is the method: Peptide and peptide-silica mixtures suspended in 50 mM phosphate buffer were applied onto carbon coated copper grid and subsequently viewed with Philips CM200 electron microscope operated at 200 kV.
A further data set can be described thus: peptide synthesis. Conditions: whole synthesis.

Regarding rriil(εK)RRIL [Peptide 8], in data set [1], the “structures of the peptide in phosphate buffer (TEM)” value is recorded as “micrometre long rods or narrow sheets”. In turn, RRILKRRIL had an isolated yield in “peptide synthesis” (on 19 μmol peptidyl resin) of 38% yield. Besides, the isolated mass in “peptide synthesis” (scale 19 μmol of peptidyl resin) stood at 23 mg. Take RRIL[εLys]RRIL: in the data set “peptide synthesis” (on 11 μmol peptidyl resin), the isolated yield is 23% yield. The same substance registered an isolated mass in “peptide synthesis” (scale 11 μmol of peptidyl resin) of 14 mg.

RRILKRRIL [Peptide 1]: the “structures of the peptide in phosphate buffer (TEM)” value in data set [1] is on record as “did not show any noticeable structures”. In turn, RRIIL[εLys]RRIL registered an isolated yield in “peptide synthesis” (on 13 μmol peptidyl resin) of 25% yield. Also, the isolated mass in “peptide synthesis” (scale 13 μmol of peptidyl resin) stood at 17 mg. In “peptide synthesis” (on 7 μmol peptidyl resin), rril(εK)RRIIL registered an isolated yield of 13% yield. In the data set “peptide synthesis” (scale 7 μmol of peptidyl resin), this substance displayed an isolated mass of 9 mg.
